To fix the notation:
B1: RFC1 (protein, UniProt P35251 1-1148)
chain: MDIRKFFGVIPSGKKLVSETVKKNEKTKSDEETLKAKKGIKEIKVNSSRKEDDFKQKQPSKKKRIIYDSDSESEETLQVKNAKKPPEKLPVSSKPGKISRQDPVTYISETDEEDDFMCKKAASKSKENGRSTNSHLGTSNMKKNEENTKTKNKPLSPIKLTPTSVLDYFGTGSVQRSNKKMVASKRKELSQNTDESGLNDEAIAKQLQLDEDAELERQLHEDEEFARTLAMLDEEPKTKKARKDTEAGETFSSVQANLSKAEKHKYPHKVKTAQVSDERKSYSPRKQSKYESSKESQQHSKSSADKIGEVSSPKASSKLAIMKRKEESSYKEIEPVASKRKENAIKLKGETKTPKKTKSSPAKKESVSPEDSEKKRTNYQAYRSYLNREGPKALGSKEIPKGAENCLEGLIFVITGVLESIERDEAKSLIERYGGKVTGNVSKKTNYLVMGRDSGQSKSDKAAALGTKIIDEDGLLNLIRTMPGKKSKYEIAVETEMKKESKLERTPQKNVQGKRKISPSKKESESKKSRPTSKRDSLAKTIKKETDVFWKSLDFKEQVAEETSGDSKARNLADDSSENKVENLLWVDKYKPTSLKTIIGQQGDQSCANKLLRWLRNWQKSSSEDKKHAAKFGKFSGKDDGSSFKAALLSGPPGVGKTTTASLVCQELGYSYVELNASDTRSKSSLKAIVAESLNNTSIKGFYSNGAASSVSTKHALIMDEVDGMAGNEDRGGIQELIGLIKHTKIPIICMCNDRNHPKIRSLVHYCFDLRFQRPRVEQIKGAMMSIAFKEGLKIPPPAMNEIILGANQDIRQVLHNLSMWCARSKALTYDQAKADSHRAKKDIKMGPFDVARKVFAAGEETAHMSLVDKSDLFFHDYSIAPLFVQENYIHVKPVAAGGDMKKHLMLLSRAADSICDGDLVDSQIRSKQNWSLLPAQAIYASVLPGELMRGYMTQFPTFPSWLGKHSSTGKHDRIVQDLALHMSLRTYSSKRTVNMDYLSLLRDALVQPLTSQGVDGVQDVVALMDTYYLMKEDFENIMEISSWGGKPSPFSKLDPKVKAAFTRAYNKEAHLTPYSLQAIKASRHSTSPSLDSEYNEELNEDDSQSDEKDQDAIETDAMIKKKTKSSKPSKPEKDKEPRKGKGKSSKK
B2: WSTF (protein, UniProt Q9UIG0 1-1483)
chain: MAPLLGRKPFPLVKPLPGEEPLFTIPHTQEAFRTREEYEARLERYSERIWTCKSTGSSQLTHKEAWEEEQEVAELLKEEFPAWYEKLVLEMVHHNTASLEKLVDTAWLEIMTKYAVGEECDFEVGKEKMLKVKIVKIHPLEKVDEEATEKKSDGACDSPSSDKENSSQIAQDHQKKETVVKEDEGRRESINDRARRSPRKLPTSLKKGERKWAPPKFLPHKYDVKLQNEDKIISNVPADSLIRTERPPNKEIVRYFIRHNALRAGTGENAPWVVEDELVKKYSLPSKFSDFLLDPYKYMTLNPSTKRKNTGSPDRKPSKKSKTDNSSLSSPLNPKLWCHVHLKKSLSGSPLKVKNSKNSKSPEEHLEEMMKMMSPNKLHTNFHIPKKGPPAKKPGKHSDKPLKAKGRSKGILNGQKSTGNSKSPKKGLKTPKTKMKQMTLLDMAKGTQKMTRAPRNSGGTPRTSSKPHKHLPPAALHLIAYYKENKDREDKRSALSCVISKTARLLSSEDRARLPEELRSLVQKRYELLEHKKRWASMSEEQRKEYLKKKREELKKKLKEKAKERREKEMLERLEKQKRYEDQELTGKNLPAFRLVDTPEGLPNTLFGDVAMVVEFLSCYSGLLLPDAQYPITAVSLMEALSADKGGFLYLNRVLVILLQTLLQDEIAEDYGELGMKLSEIPLTLHSVSELVRLCLRRSDVQEESEGSDTDDNKDSAAFEDNEVQDEFLEKLETSEFFELTSEEKLQILTALCHRILMTYSVQDHMETRQQMSAELWKERLAVLKEENDKKRAEKQKRKEMEAKNKENGKVENGLGKTDRKKEIVKFEPQVDTEAEDMISAVKSRRLLAIQAKKEREIQEREMKVKLERQAEEERIRKHKAAAEKAFQEGIAKAKLVMRRTPIGTDRNHNRYWLFSDEVPGLFIEKGWVHDSIDYRFNHHCKDHTVSGDEDYCPRSKKANLGKNASMNTQHGTATEVAVETTTPKQGQNLWFLCDSQKELDELLNCLHPQGIRESQLKERLEKRYQDIIHSIHLARKPNLGLKSCDGNQELLNFLRSDLIEVATRLQKGGLGYVEETSEFEARVISLEKLKDFGECVIALQASVIKKFLQGFMAPKQKRRKLQSEDSAKTEEVDEEKKMVEEAKVASALEKWKTAIREAQTFSRMHVLLGMLDACIKWDMSAENARCKVCRKKGEDDKLILCDECNKAFHLFCLRPALYEVPDGEWQCPACQPATARRNSRGRNYTEESASEDSEDDESDEEEEEEEEEEEEEDYEVAGLRLRPRKTIRGKHSVIPPAARSGRRPGKKPHSTRRSQPKAPPVDDAEVDELVLQTKRSSRRQSLELQKCEEILHKIVKYRFSWPFREPVTRDEAEDYYDVITHPMDFQTVQNKCSCGSYRSVQEFLTDMKQVFTNAEVYNCRGSHVLSCMVKTEQCLVALLHKHLPGHPYVRRKRKKFPDRLAEDEGDSEPEAVGQSRGRRQKK
B3: ILF3 (protein, UniProt Q12906 1-894)
chain: MRPMRIFVNDDRHVMAKHSSVYPTQEELEAVQNMVSHTERALKAVSDWIDEQEKGSSEQAESDNMDVPPEDDSKEGAGEQKTEHMTRTLRGVMRVGLVAKGLLLKGDLDLELVLLCKEKPTTALLDKVADNLAIQLAAVTEDKYEILQSVDDAAIVIKNTKEPPLSLTIHLTSPVVREEMEKVLAGETLSVNDPPDVLDRQKCLAALASLRHAKWFQARANGLKSCVIVIRVLRDLCTRVPTWGPLRGWPLELLCEKSIGTANRPMGAGEALRRVLECLASGIVMPDGSGIYDPCEKEATDAIGHLDRQQREDITQSAQHALRLAAFGQLHKVLGMDPLPSKMPKKPKNENPVDYTVQIPPSTTYAITPMKRPMEEDGEEKSPSKKKKKIQKKEEKAEPPQAMNALMRLNQLKPGLQYKLVSQTGPVHAPIFTMSVEVDGNSFEASGPSKKTAKLHVAVKVLQDMGLPTGAEGRDSSKGEDSAEETEAKPAVVAPAPVVEAVSTPSAAFPSDATAEQGPILTKHGKNPVMELNEKRRGLKYELISETGGSHDKRFVMEVEVDGQKFQGAGSNKKVAKAYAALAALEKLFPDTPLALDANKKKRAPVPVRGGPKFAAKPHNPGFGMGGPMHNEVPPPPNLRGRGRGGSIRGRGRGRGFGGANHGGYMNAGAGYGSYGYGGNSATAGYSQFYSNGGHSGNASGGGGGGGGGSSGYGSYYQGDNYNSPVPPKHAGKKQPHGGQQKPSYGSGYQSHQGQQQSYNQSPYSNYGPPQGKQKGYNHGQGSYSYSNSYNSPGGGGGSDYNYESKFNYSGSGGRSGGNSYGSGGASYNPGSHGGYGGGSGGGSSYQGKQGGYSQSNYNSPGSGQNYSGPPSSYQSSQGGYGRNADHSMNYQYR
B4: MCM6 (protein, UniProt Q14566 1-821)
chain: MDLAAAAEPGAGSQHLEVRDEVAEKCQKLFLDFLEEFQSSDGEIKYLQLAEELIRPERNTLVVSFVDLEQFNQQLSTTIQEEFYRVYPYLCRALKTFVKDRKEIPLAKDFYVAFQDLPTRHKIRELTSSRIGLLTRISGQVVRTHPVHPELVSGTFLCLDCQTVIRDVEQQFKYTQPNICRNPVCANRRRFLLDTNKSRFVDFQKVRIQETQAELPRGSIPRSLEVILRAEAVESAQAGDKCDFTGTLIVVPDVSKLSTPGARAETNSRVSGVDGYETEGIRGLRALGVRDLSYRLVFLACCVAPTNPRFGGKELRDEEQTAESIKNQMTVKEWEKVFEMSQDKNLYHNLCTSLFPTIHGNDEVKRGVLLMLFGGVPKTTGEGTSLRGDINVCIVGDPSTAKSQFLKHVEEFSPRAVYTSGKASSAAGLTAAVVRDEESHEFVIEAGALMLADNGVCCIDEFDKMDVRDQVAIHEAMEQQTISITKAGVKATLNARTSILAAANPISGHYDRSKSLKQNINLSAPIMSRFDLFFILVDECNEVTDYAIARRIVDLHSRIEESIDRVYSLDDIRRYLLFARQFKPKISKESEDFIVEQYKHLRQRDGSGVTKSSWRITVRQLESMIRLSEAMARMHCCDEVQPKHVKEAFRLLNKSIIRVETPDVNLDQEEEIQMEVDEGAGGINGHADSPAPVNGINGYNEDINQESAPKASLRLGFSEYCRISNLIVLHLRKVEEEEDESALKRSELVNWYLKEIESEIDSEEELINKKRIIEKVIHRLTHYDHVLIELTQAGLKGSTEGSESYEEDPYLVVNPNYLLED
B5: SAP18 (protein, UniProt O00422 1-153)
chain: MAVESRVTQEEIKKEPEKPIDREKTCPLLLRVFTTNNGRHHRMDEFSRGNVPSSELQIYTWMDATLKELTSLVKEVYPEARKKGTHFNFAIVFTDVKRPGYRVKEIGSTMSGRKGTDDSMTLQSQKFQIGDYLDIAITPPNRAPPPSGRMRPY
B6: ERCC2 (protein, UniProt P18074 1-760)
chain: MKLNVDGLLVYFPYDYIYPEQFSYMRELKRTLDAKGHGVLEMPSGTGKTVSLLALIMAYQRAYPLEVTKLIYCSRTVPEIEKVIEELRKLLNFYEKQEGEKLPFLGLALSSRKNLCIHPEVTPLRFGKDVDGKCHSLTASYVRAQYQHDTSLPHCRFYEEFDAHGREVPLPAGIYNLDDLKALGRRQGWCPYFLARYSILHANVVVYSYHYLLDPKIADLVSKELARKAVVVFDEAHNIDNVCIDSMSVNLTRRTLDRCQGNLETLQKTVLRIKETDEQRLRDEYRRLVEGLREASAARETDAHLANPVLPDEVLQEAVPGSIRTAEHFLGFLRRLLEYVKWRLRVQHVVQESPPAFLSGLAQRVCIQRKPLRFCAERLRSLLHTLEITDLADFSPLTLLANFATLVSTYAKGFTIIIEPFDDRTPTIANPILHFSCMDASLAIKPVFERFQSVIITSGTLSPLDIYPKILDFHPVTMATFTMTLARVCLCPMIIGRGNDQVAISSKFETREDIAVIRNYGNLLLEMSAVVPDGIVAFFTSYQYMESTVASWYEQGILENIQRNKLLFIETQDGAETSVALEKYQEACENGRGAILLSVARGKVSEGIDFVHHYGRAVIMFGVPYVYTQSRILKARLEYLRDQFQIRENDFLTFDAMRHAAQCVGRAIRGKTDYGLMVFADKRFARGDKRGKLPRWIQEHLTDANLNLTVDEGVQVAKYFLRQMAQPFHREDQLGLSLLSLEQLESEETLKRIEQIAQQL
B7: MCM3 (protein, UniProt P25205 1-808)
chain: MAGTVVLDDVELREAQRDYLDFLDDEEDQGIYQSKVRELISDNQYRLIVNVNDLRRKNEKRANRLLNNAFEELVAFQRALKDFVASIDATYAKQYEEFYVGLEGSFGSKHVSPRTLTSCFLSCVVCVEGIVTKCSLVRPKVVRSVHYCPATKKTIERRYSDLTTLVAFPSSSVYPTKDEENNPLETEYGLSVYKDHQTITIQEMPEKAPAGQLPRSVDVILDDDLVDKAKPGDRVQVVGTYRCLPGKKGGYTSGTFRTVLIACNVKQMSKDAQPSFSAEDIAKIKKFSKTRSKDIFDQLAKSLAPSIHGHDYVKKAILCLLLGGVERDLENGSHIRGDINILLIGDPSVAKSQLLRYVLCTAPRAIPTTGRGSSGVGLTAAVTTDQETGERRLEAGAMVLADRGVVCIDEFDKMSDMDRTAIHEVMEQGRVTIAKAGIHARLNARCSVLAAANPVYGRYDQYKTPMENIGLQDSLLSRFDLLFIMLDQMDPEQDREISDHVLRMHRYRAPGEQDGDAMPLGSAVDILATDDPNFSQEDQQDTQIYEKHDNLLHGTKKKKEKMVSAAFMKKYIHVAKIIKPVLTQESATYIAEEYSRLRSQDSMSSDTARTSPVTARTLETLIRLATAHAKARMSKTVDLQDAEEAVELVQYAYFKKVLEKEKKRKKRSEDESETEDEEEKSQEDQEQKRKRRKTRQPDAKDGDSYDPYDFSDTEEEMPQVHTPKTADSQETKESQKVELSESRLKAFKVALLDVFREAHAQSIGMNRLTESINRDSEEPFSSVEIQAALSKMQDDNQVMVSEGIIFLI

By UniProt entry, the sequences of proteins in these tests, tags left out.
UniProt P04608: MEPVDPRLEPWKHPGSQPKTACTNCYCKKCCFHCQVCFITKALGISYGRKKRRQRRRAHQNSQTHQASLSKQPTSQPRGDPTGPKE

These are yes or no findings as the source states them, for the method shown. In cells and extracts the contact can be indirect. A yes stands for co-enrichment or nearness to the bait. Other partners may have been found.

This assay concerns the target GST-Tat (HIV-1 HXB2, 86 amino acids) (HIV-1 HXB2) (UniProt P04608). As to the kind of experiment: affinity purification with mass spectrometry; only the target purified.
Take B1: the binding result is recorded as “binds”.
As to B2, the binding entry is on record as “binds”.
The same measure for B3: “binds”; for B4: “binds”; for B5: “binds”.
The same measure for B6: “binds”; for B7: “binds”.
